Reference: paper PMC9440563
No constants are given. Whether binding was seen depends on the method and setting. In cells and extracts the contact can be indirect. Some entries that bind do so weakly or less than the wild type.

Chains of the proteins cited; added tags and fusions are not shown.
UniProt Q3URK3: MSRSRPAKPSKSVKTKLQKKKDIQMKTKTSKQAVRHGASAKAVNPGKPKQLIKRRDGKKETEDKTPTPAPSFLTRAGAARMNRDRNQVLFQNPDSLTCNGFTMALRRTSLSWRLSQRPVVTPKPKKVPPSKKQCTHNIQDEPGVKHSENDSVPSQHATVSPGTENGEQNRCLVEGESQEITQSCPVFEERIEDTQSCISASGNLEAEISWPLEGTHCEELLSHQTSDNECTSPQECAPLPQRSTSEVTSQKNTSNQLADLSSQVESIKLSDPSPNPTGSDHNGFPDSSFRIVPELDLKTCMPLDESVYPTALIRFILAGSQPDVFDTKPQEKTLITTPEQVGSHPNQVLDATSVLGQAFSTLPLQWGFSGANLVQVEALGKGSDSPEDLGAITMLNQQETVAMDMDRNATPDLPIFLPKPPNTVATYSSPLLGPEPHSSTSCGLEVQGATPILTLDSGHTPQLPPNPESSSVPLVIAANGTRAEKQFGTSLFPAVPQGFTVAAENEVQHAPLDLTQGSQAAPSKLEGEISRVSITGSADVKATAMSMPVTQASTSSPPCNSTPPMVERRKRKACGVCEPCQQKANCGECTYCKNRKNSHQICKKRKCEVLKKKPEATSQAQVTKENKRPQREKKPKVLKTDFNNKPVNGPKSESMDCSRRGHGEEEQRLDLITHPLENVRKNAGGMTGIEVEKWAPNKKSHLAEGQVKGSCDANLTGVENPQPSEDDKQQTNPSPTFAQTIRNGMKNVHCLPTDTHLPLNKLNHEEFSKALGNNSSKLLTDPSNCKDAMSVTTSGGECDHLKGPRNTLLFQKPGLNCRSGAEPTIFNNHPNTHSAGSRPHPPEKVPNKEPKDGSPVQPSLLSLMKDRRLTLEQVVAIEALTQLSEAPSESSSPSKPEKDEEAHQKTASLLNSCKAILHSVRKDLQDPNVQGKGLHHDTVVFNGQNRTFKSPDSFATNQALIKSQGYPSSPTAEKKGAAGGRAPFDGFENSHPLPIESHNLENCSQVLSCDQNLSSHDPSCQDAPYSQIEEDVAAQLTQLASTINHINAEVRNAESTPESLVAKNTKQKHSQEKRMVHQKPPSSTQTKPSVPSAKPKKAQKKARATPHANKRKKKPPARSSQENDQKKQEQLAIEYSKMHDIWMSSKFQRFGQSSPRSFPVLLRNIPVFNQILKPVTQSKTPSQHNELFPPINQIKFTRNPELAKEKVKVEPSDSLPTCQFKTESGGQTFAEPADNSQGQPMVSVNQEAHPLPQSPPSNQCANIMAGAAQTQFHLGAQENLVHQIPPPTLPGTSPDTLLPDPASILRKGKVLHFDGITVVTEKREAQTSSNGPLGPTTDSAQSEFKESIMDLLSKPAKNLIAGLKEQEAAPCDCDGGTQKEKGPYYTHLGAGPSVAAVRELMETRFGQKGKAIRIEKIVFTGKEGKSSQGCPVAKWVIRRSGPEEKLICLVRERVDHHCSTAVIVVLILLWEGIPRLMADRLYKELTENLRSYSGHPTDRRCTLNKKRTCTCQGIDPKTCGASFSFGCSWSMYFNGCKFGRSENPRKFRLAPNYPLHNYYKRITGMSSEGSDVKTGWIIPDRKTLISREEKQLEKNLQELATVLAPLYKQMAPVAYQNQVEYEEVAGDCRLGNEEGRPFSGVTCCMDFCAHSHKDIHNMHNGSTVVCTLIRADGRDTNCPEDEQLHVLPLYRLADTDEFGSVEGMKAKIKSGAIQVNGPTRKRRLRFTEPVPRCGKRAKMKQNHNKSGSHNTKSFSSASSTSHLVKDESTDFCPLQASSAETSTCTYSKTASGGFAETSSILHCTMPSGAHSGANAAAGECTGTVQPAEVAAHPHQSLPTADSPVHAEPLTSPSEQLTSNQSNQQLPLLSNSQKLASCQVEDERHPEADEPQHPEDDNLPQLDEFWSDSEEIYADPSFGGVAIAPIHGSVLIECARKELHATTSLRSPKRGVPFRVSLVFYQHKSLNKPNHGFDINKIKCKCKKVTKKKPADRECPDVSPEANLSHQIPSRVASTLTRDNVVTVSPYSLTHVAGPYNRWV

T1: CCCTC-binding factor (CTCF) (mouse (endogenous in iHepSCs)) (UniProt Q61164)
T1 sequence: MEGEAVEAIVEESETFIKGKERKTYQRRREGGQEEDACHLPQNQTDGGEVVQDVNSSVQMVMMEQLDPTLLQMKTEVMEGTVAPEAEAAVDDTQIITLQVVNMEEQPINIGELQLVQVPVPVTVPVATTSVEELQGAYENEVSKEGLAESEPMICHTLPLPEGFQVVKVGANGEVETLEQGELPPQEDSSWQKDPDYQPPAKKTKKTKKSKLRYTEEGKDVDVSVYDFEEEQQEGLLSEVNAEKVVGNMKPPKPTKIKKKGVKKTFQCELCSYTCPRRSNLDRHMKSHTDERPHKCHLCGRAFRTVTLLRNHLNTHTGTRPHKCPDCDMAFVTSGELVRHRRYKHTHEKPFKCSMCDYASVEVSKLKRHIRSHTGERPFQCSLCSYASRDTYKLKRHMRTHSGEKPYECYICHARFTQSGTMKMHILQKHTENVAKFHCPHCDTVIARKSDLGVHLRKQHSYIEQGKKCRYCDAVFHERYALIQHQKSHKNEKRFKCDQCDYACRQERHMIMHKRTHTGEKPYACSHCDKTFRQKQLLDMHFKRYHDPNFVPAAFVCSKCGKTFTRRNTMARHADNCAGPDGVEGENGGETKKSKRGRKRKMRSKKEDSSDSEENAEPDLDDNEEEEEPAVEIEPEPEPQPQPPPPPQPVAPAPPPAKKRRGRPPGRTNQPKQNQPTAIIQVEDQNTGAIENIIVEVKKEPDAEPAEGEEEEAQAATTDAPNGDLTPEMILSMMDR


Columns and labels:
[1] = target: T1, CCCTC-binding factor (CTCF) (mouse (endogenous in iHepSCs)); test: co-IP; nuclear extract of iHepSCs; immunoprecipitation with anti-TET1 antibody or anti-CTCF antibody, endogenous proteins
[2] = target: Tet methylcytosine dioxygenase 1 (TET1) (mouse (endogenous in iHepSCs)) (UniProt Q3URK3); test: as above

binding [1]	binding [2]	Molecule
binds	–	Tet methylcytosine dioxygenase 1 (TET1) (from UniProt Q3URK3 1-2039)
–	binds	CCCTC-binding factor (CTCF) (protein, UniProt Q61164 1-736) MEGEAVEAIVEESETFIKGKERKTYQRRREGGQEEDACHLPQNQTDGGEVVQDVNSSVQMVMMEQLDPTLLQMKTEVMEGTVAPEAEAAVDDTQIITLQVVNMEEQPINIGELQLVQVPVPVTVPVATTSVEELQGAYENEVSKEGLAESEPMICHTLPLPEGFQVVKVGANGEVETLEQGELPPQEDSSWQKDPDYQPPAKKTKKTKKSKLRYTEEGKDVDVSVYDFEEEQQEGLLSEVNAEKVVGNMKPPKPTKIKKKGVKKTFQCELCSYTCPRRSNLDRHMKSHTDERPHKCHLCGRAFRTVTLLRNHLNTHTGTRPHKCPDCDMAFVTSGELVRHRRYKHTHEKPFKCSMCDYASVEVSKLKRHIRSHTGERPFQCSLCSYASRDTYKLKRHMRTHSGEKPYECYICHARFTQSGTMKMHILQKHTENVAKFHCPHCDTVIARKSDLGVHLRKQHSYIEQGKKCRYCDAVFHERYALIQHQKSHKNEKRFKCDQCDYACRQERHMIMHKRTHTGEKPYACSHCDKTFRQKQLLDMHFKRYHDPNFVPAAFVCSKCGKTFTRRNTMARHADNCAGPDGVEGENGGETKKSKRGRKRKMRSKKEDSSDSEENAEPDLDDNEEEEEPAVEIEPEPEPQPQPPPPPQPVAPAPPPAKKRRGRPPGRTNQPKQNQPTAIIQVEDQNTGAIENIIVEVKKEPDAEPAEGEEEEAQAATTDAPNGDLTPEMILSMMDR
